Mtb heat-shock: 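Assay on Mycobacterium tuberculosis, filed only as a heat shock assay from Cornell; the read-out is not stated. The concentration is filed as 10 mM, unlikely as a test dose, so the dose is not known. Direction is inferred from retests: higher values go with stronger inhibition. Size under these conditions: about 69,000 compounds, about 930 of them at 50% or above in at least one test.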
Mtb growth Cornell: 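Whole-cell assay for inhibitors of Mycobacterium tuberculosis growth, labelled Cornell in the record; the read-out is not stated. The concentration is filed as 10 mM, unlikely as a test dose, so the dose is not known. Higher means stronger inhibition (inferred from two other growth screens of the library). Size under these conditions: about 53,000 compounds, about 900 of them at 50% or above in at least one test.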
LdMetRS: 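Methionyl-tRNA synthetase (putative), Leishmania donovani (UniProt E9BF75). Primary screen of methionyl-tRNA synthetase; the read-out is not stated. The test concentration is not given. The values are filed as inhibition. Of about 68,000 compounds tested this way, about 24 (0.035%) reached 50% or more in at least one test.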

Chains of the proteins cited; added tags and fusions are not shown.
UniProt E9BF75, entry or part of it: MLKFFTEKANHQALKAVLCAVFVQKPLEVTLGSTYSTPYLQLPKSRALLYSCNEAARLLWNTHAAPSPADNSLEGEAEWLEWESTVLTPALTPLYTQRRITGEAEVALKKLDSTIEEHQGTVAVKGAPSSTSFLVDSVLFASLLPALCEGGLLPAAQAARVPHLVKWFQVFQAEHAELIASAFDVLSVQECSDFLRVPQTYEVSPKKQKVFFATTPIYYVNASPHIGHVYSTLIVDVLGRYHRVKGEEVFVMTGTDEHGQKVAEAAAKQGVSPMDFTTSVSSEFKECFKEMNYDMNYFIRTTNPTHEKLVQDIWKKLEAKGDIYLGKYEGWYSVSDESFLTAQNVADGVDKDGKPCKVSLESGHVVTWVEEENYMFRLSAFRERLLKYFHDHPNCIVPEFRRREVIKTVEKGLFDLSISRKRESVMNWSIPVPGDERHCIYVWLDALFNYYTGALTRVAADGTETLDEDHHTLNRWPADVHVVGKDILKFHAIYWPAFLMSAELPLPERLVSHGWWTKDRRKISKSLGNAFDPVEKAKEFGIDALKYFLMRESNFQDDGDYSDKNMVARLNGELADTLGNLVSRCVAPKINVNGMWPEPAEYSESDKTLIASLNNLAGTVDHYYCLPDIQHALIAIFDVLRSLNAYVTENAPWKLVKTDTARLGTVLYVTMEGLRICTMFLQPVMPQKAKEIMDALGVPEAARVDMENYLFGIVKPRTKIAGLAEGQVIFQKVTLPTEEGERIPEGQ

Results are percentages, as filed. How 0% and 100% were set is not recorded. Most values in the screen are low, and negative values occur. Compounds were drawn at random from those tested, without regard to their results.

For Cc1nc2n(n1)CC(Nc1cc(C(F)(F)F)nc3ncnn13)CC2 (stereo not given) the result was Mtb heat-shock: -1.881%; Mtb growth Cornell: -50.77%; LdMetRS: -0.4926%. For COc1ccc(S(=O)(=O)NCC(N)c2ccccc2)c(C)c1 (stereo not given) the result was LdMetRS: 7.519%. Result for O=C(CN1CCCCCC1)N1CCc2nnc(C3CCCNC3)n2CC1 (stereo not given) was Mtb heat-shock: -26.24%; Mtb growth Cornell: -29.2%; LdMetRS: 6.032%. For Cc1nnc(N2C[C@H](OCCCn3cccn3)[C@H]3OCCC[C@H]32)s1 the result was LdMetRS: 11.28%. Cc1cccc(S(=O)(=O)N2Cc3c(CN(C)C)nn(C)c3C2)c1 gave Mtb heat-shock: -0.3484%; Mtb growth Cornell: 21.67%; LdMetRS: 13.48%. For N#Cc1nc(COc2ccc3c(c2)OCO3)oc1NC1CCCCC1 the result was Mtb heat-shock: 5.438%; Mtb growth Cornell: 58.43%; LdMetRS: -5.152%. Result for N#CC1=C(N)Nn2c(nnc2-c2ccccc2Br)S1 was Mtb heat-shock: -17.22%; Mtb growth Cornell: 29.16%; LdMetRS: 12.83%.

For CC(NC(=O)N1CCN(c2cccs2)CC1)c1ccncc1 (stereo not given) the result was Mtb heat-shock: 2.853%; Mtb growth Cornell: 62.51%; LdMetRS: 10.87%. With CS(=O)(=O)N1C[C@@H]2COC[C@]2(COCC(=O)N2CCCC2)C1 the screen gave LdMetRS: 12.92%. Result for CC1c2ncc(CN3CCN(C)CC3)n2CCN1CC1CC1.O=C(O)C(F)(F)F.O=C(O)C(F)(F)F.O=C(O)C(F)(F)F (stereo not given) was Mtb heat-shock: 12.47%; Mtb growth Cornell: 25.03%. Result for Cn1nccc1-c1nnn2c1COCC(CNCC1CC1)C2.O=C(O)C(F)(F)F.O=C(O)C(F)(F)F (stereo not given) was Mtb heat-shock: 30.33%; Mtb growth Cornell: -1.11%. O=C(O)c1coc(COc2cccc(F)c2)n1 read Mtb heat-shock: -4.453%; Mtb growth Cornell: 15.94%; LdMetRS: 15.99%. With Fc1cnc(N2CCO[C@H]3CN(CC4CCCC4)C[C@H]32)nc1 the screen gave LdMetRS: 10.46%. CCOc1ccccc1NC(=O)NCC(C)(O)CCSC (stereo not given) gave Mtb heat-shock: 3.077%; Mtb growth Cornell: 21.08%; LdMetRS: 12.23%.

O=C(O)CC(O)(CC(=O)O)C(=O)O.[H][C@@]12CC[C@@](O)(c3ccc(C)cn3)[C@]1([H])CN(Cc1cc(C)c(O)c(C)c1)C2 gave Mtb heat-shock: 13.34%; Mtb growth Cornell: 50.31%. O=C(CCc1nccs1)N1CCCC(n2cccn2)C1 (stereo not given) gave Mtb heat-shock: -4.626%; Mtb growth Cornell: -19.33%; LdMetRS: 16.11%. Result for [H][C@]12CCN(C(=O)Nc3ccccc3C)CC[C@@]1([H])S(=O)(=O)N(CC)C2 was Mtb heat-shock: -16.96%. For CS(=O)(=O)N1CCCC(C(=O)Nc2cnn(Cc3ccc(F)cc3)c2)C1 (stereo not given) the result was Mtb heat-shock: -15.31%; Mtb growth Cornell: 10.3%; LdMetRS: 13.78%. O=C(NCC1CC1)[C@@H]1CC[C@@H]2[C@@H](CCN2Cc2ccco2)O1 gave LdMetRS: 8.122%. Cc1cccc(NC(=O)C2CC(=O)n3cnnc3S2)c1 (stereo not given) gave Mtb heat-shock: 21.23%; Mtb growth Cornell: 107.8%; LdMetRS: 11.26%. For O=C(CCn1ccc2ccccc21)Nc1ccnn1CC1CCOC1 (stereo not given) the result was Mtb heat-shock: -22.62%; Mtb growth Cornell: -17.29%; LdMetRS: 5.915%.

With CS(=O)(=O)N1CCN(c2cnnc(N3CCCC3)c2)CC1 the screen gave Mtb heat-shock: -3.036%; Mtb growth Cornell: 9.131%; LdMetRS: 15.6%. Result for CN(C(=O)c1ccco1)C1CCC(NC(=O)OC(C)(C)C)CC1 (stereo not given) was Mtb heat-shock: -18.54%; Mtb growth Cornell: 8.385%; LdMetRS: 12.39%. Result for Cc1ccc(OCC(=O)N(C)Cc2ccc(F)cc2)cn1 was Mtb heat-shock: 12.49%; Mtb growth Cornell: -7.171%; LdMetRS: 8.659%. For Cn1ccnc1CN1CCC2(CC1)CCN(c1cncnc1)C2=O the result was LdMetRS: 6.044%. For Cc1ccccc1CNC(=O)Cn1nc(-c2ccc(F)cc2)oc1=O the result was Mtb heat-shock: -32.08%; LdMetRS: 16.39%. CC(OCC1CC1)C(=O)Nc1ncn(CC(=O)N2CCCCCC2)n1 (stereo not given) gave Mtb heat-shock: -20.2%; LdMetRS: 8.947%. With CN1CCN(Cc2cn3c(n2)CN(Cc2ccccn2)CC3)CC1 the screen gave Mtb heat-shock: 35.36%; Mtb growth Cornell: -6.558%; LdMetRS: 8.211%.

O=C(c1cnccn1)N1CCc2ncnc(-c3cccnc3)c2CC1 read LdMetRS: 12.13%. [H][C@]12CCN(C(=O)c3ccc4ccccc4c3)C[C@@]1([H])OCCN(C(C)=O)C2 gave Mtb heat-shock: 8.042%; Mtb growth Cornell: -13.82%. For CC1(C)Cc2c(cnn2-c2ccccc2)C(NC2CCSCC2)C1 (stereo not given) the result was Mtb heat-shock: -8.345%; Mtb growth Cornell: 16.84%; LdMetRS: 7.534%. Result for CN1C(=O)CCN(C(=O)C2CC=CC2)c2ccccc21 was Mtb heat-shock: 6.213%; Mtb growth Cornell: 7.153%; LdMetRS: 15.22%. Result for Cn1cnc2c1C(COCC1CC1)CN(C(=O)c1cscn1)C2.O=C(O)C(F)(F)F (stereo not given) was Mtb heat-shock: -1.695%; Mtb growth Cornell: -9.645%. CN(C)CC(=O)N1CCCC2(CCC(=O)N(CCc3c[nH]cn3)C2)C1 (stereo not given) gave Mtb heat-shock: -23.65%; Mtb growth Cornell: -11.84%; LdMetRS: 4.724%.

2 of the entries, repeated:

- CC1c2ncc(CN3CCN(C)CC3)n2CCN1CC1CC1.O=C(O)C(F)(F)F.O=C(O)C(F)(F)F.O=C(O)C(F)(F)F (stereo not given) : Mtb heat-shock: 12.47%; Mtb growth Cornell: 25.03%
- CC1(C)Cc2c(cnn2-c2ccccc2)C(NC2CCSCC2)C1 (stereo not given) : Mtb heat-shock: -8.345%; Mtb growth Cornell: 16.84%; LdMetRS: 7.534%

Source: ChEMBL document CHEMBL3988442, “University of Dundee, Small-Polar-MMV Screening Library” (2021).